Test results as given in PMC5004899, “Architecture of the caveolar coat complex” (Journal of Cell Science, 2016).
No constants are given. Whether binding was seen depends on the method and setting. Binding seen in cells or lysates may run through a third protein. Some results given as binding are weak or reduced against the parent protein; the word gives no strength. Sequences can lack the tags named with a protein.

Amino acid sequences for entries named in this document (tags omitted).
UniProt Q03135: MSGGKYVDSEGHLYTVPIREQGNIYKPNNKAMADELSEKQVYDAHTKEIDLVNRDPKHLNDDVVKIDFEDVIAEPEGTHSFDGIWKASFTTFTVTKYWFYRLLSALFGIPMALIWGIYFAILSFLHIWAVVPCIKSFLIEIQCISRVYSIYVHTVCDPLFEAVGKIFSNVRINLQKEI

Biological target: T1, cavin-3–EGFP-10×His (UniProt Q969G5)
T1 sequence: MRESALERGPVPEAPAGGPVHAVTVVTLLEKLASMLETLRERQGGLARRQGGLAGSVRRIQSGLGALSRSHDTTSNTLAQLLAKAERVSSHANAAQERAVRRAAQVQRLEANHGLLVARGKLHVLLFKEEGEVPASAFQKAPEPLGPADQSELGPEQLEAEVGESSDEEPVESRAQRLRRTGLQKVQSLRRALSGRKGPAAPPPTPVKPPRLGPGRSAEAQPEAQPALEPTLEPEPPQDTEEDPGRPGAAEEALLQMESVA
Experiment: pull-down; live HeLa cells cross-linked with 2 mM DSP; lysate in 0.5% Triton X-100, 1% octyl-glucoside; 20-40% sucrose gradient, fractions 7-10 pooled; TALON metal affinity resin by the 10×His of cavin-3, 4 h at 4°C, eluted with 400 mM imidazole; fully reduced; silver staining and western blots

**Q.** How did the binding turn out when caveolin-1 (from UniProt Q03135 1-178) was run?
**A.** binds
